Our source for the log2 fold change values is the supplement of paper PMC10849652.

Amino acid sequences for entries named in this document (tags omitted). A change or cut given only in a name is not applied to a line headed by its entry.
UniProt P11532, whole entry, looked up: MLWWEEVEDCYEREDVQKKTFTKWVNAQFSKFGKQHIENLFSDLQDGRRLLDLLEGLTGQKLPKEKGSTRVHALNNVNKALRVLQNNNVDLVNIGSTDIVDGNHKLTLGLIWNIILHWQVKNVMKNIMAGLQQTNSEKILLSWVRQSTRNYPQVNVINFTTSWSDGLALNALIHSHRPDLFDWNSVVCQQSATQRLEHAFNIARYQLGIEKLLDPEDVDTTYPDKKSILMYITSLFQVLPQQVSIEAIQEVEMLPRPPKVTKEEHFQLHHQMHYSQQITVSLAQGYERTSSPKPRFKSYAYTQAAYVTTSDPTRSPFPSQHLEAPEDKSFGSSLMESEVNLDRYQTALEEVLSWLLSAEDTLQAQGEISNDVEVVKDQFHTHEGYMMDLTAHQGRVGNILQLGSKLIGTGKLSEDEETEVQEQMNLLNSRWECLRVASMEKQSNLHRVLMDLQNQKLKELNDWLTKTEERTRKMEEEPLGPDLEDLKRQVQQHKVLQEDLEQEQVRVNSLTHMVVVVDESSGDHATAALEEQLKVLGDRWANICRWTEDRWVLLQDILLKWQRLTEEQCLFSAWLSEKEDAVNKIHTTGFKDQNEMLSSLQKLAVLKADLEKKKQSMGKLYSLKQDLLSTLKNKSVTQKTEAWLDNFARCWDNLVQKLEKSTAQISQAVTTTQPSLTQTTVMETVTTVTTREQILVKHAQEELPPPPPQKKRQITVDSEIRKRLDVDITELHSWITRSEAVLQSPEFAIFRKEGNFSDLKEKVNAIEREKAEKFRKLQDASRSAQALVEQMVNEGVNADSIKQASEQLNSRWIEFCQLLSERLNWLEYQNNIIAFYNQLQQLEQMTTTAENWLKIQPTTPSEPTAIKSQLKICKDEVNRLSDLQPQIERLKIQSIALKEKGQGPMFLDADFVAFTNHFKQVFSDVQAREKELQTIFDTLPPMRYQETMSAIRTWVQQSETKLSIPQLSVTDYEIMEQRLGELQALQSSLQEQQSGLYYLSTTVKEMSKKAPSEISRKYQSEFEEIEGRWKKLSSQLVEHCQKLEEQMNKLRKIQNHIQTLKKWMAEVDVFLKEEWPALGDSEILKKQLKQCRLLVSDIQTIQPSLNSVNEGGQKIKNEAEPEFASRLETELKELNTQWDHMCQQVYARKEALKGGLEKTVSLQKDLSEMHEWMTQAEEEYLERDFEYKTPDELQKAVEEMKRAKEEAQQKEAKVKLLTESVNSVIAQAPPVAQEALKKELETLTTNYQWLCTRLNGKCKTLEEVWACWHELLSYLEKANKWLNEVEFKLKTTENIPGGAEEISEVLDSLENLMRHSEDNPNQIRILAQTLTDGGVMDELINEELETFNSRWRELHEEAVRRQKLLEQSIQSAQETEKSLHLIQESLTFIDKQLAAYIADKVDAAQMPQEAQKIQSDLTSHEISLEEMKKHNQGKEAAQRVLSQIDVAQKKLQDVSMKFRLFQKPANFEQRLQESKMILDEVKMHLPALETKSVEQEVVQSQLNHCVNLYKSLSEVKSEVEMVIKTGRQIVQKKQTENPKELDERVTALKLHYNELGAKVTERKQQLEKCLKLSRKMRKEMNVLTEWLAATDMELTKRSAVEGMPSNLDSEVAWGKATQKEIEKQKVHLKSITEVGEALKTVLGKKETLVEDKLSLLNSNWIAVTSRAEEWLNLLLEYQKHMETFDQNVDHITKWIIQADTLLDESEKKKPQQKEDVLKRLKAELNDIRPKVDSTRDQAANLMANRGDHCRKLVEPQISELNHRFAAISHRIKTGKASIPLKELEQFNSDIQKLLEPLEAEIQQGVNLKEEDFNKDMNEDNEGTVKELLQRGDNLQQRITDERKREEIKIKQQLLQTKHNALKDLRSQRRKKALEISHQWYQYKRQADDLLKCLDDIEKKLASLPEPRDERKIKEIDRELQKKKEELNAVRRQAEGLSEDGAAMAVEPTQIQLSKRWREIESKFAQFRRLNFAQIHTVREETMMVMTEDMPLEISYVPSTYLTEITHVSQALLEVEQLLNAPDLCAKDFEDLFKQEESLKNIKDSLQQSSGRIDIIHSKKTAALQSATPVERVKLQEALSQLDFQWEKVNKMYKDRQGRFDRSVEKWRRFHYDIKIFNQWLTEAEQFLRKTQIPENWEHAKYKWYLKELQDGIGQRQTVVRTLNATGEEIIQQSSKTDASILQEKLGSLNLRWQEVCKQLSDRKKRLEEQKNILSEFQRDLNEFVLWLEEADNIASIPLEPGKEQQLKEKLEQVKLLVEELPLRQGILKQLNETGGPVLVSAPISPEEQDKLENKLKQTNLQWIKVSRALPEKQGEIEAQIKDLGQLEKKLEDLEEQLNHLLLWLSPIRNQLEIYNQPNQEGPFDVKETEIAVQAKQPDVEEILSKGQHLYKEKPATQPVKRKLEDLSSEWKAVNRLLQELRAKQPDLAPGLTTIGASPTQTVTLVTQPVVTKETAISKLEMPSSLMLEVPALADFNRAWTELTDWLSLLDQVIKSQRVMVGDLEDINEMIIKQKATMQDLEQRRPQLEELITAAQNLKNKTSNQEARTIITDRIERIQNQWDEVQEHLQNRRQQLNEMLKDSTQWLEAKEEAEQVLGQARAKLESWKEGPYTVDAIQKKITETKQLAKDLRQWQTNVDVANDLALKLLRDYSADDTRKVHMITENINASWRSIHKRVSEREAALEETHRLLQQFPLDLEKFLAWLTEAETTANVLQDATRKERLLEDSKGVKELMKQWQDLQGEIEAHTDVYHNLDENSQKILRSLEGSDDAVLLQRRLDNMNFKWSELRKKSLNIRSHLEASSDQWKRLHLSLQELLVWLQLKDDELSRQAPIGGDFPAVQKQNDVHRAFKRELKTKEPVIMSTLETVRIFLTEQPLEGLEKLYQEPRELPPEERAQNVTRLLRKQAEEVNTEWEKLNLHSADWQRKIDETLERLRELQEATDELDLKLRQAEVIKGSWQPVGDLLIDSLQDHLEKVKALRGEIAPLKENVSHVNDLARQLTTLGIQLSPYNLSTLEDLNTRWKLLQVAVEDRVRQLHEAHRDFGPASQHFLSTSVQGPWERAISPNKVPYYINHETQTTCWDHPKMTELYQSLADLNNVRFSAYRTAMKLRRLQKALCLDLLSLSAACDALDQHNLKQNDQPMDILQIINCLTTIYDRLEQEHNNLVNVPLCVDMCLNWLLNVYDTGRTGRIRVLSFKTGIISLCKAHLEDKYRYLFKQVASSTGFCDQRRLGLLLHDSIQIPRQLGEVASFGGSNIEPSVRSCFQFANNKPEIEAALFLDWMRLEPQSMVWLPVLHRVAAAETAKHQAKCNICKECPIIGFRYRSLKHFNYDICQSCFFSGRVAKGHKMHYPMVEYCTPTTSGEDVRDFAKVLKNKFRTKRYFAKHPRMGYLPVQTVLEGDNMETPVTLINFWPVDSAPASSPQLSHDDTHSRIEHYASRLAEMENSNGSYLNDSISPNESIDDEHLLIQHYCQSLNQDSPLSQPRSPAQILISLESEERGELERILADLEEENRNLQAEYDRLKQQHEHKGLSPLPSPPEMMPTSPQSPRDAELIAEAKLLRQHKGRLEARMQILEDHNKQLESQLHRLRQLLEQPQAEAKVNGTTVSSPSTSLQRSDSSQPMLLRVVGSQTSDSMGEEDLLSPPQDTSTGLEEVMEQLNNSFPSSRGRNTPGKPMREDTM
UniProt Q16854: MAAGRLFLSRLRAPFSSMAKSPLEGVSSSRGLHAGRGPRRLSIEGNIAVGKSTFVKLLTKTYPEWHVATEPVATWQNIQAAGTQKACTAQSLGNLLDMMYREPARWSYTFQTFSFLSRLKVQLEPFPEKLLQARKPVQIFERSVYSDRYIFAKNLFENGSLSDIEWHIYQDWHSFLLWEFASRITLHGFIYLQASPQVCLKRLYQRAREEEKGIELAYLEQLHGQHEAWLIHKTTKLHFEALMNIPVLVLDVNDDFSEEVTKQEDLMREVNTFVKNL
UniProt Q9UNQ2: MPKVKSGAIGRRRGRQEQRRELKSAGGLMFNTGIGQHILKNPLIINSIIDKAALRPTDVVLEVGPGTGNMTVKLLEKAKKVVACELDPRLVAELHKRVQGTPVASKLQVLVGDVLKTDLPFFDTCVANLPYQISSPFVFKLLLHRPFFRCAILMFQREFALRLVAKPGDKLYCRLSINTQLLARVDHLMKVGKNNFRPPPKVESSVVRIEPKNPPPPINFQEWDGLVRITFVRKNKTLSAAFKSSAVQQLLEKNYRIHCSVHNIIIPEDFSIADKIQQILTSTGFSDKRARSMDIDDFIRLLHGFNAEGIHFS
UniProt O00273: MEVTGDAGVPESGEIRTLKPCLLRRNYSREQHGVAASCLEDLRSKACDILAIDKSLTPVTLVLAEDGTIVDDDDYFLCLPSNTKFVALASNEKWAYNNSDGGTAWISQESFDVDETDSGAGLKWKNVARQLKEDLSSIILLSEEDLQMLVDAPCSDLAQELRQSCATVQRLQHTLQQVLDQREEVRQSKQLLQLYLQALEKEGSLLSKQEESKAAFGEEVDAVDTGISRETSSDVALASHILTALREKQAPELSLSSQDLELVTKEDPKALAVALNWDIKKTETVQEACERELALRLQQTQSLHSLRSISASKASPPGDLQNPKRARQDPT
UniProt Q9BUN8: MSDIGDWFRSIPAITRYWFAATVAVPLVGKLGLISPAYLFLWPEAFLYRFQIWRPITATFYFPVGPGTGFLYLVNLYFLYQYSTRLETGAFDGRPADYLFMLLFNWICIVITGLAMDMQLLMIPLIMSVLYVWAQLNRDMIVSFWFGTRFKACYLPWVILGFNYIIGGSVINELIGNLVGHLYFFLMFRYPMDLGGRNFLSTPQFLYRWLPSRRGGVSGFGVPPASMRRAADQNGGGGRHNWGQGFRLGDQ
UniProt O43143: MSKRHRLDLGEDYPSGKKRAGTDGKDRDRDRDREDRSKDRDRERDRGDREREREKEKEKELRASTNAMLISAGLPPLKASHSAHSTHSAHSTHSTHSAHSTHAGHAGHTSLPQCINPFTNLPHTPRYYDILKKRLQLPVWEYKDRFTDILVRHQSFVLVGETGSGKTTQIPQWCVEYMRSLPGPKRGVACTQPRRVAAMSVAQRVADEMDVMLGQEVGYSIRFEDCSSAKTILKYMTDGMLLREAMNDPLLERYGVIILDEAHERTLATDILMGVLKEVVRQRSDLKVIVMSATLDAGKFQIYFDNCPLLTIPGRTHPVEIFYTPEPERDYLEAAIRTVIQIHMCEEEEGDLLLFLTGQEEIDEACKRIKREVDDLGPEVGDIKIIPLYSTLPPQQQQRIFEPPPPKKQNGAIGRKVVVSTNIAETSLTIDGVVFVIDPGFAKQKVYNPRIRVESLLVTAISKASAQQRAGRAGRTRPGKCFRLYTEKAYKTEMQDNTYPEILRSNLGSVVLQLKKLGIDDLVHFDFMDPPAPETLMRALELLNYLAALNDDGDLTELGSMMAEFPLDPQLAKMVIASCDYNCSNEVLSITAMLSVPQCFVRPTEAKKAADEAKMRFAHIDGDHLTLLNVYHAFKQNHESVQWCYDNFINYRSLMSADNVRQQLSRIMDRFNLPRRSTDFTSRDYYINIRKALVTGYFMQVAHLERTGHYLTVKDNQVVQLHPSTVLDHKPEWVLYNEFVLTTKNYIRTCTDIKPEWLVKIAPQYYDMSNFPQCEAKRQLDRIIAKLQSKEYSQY
UniProt P30046: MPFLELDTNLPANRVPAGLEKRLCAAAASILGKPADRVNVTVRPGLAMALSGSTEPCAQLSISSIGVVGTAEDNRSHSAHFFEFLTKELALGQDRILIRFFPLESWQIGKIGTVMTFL
UniProt Q9UHI6: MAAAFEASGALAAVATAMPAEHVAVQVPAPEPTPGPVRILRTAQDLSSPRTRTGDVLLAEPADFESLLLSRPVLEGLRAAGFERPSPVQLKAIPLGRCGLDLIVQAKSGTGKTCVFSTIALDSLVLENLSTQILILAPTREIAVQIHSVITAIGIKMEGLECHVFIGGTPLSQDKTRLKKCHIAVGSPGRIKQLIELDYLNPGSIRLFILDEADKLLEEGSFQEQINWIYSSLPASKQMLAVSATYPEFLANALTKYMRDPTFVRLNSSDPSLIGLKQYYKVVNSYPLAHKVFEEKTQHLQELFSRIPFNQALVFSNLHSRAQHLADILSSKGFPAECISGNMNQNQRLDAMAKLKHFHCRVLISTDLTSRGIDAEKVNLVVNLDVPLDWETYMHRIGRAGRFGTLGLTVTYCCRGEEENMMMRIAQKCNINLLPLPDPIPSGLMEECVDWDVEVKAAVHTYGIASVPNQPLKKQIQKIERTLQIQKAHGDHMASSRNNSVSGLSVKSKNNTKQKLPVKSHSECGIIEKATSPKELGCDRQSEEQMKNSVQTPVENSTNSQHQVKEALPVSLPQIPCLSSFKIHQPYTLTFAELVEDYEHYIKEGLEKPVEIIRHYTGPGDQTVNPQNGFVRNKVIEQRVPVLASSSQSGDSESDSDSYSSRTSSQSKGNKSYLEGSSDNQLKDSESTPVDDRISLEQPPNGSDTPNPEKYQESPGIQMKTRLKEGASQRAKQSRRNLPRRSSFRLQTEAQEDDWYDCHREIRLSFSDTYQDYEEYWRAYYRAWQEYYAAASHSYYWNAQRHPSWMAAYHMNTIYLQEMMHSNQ

The list shows a part of the results.

Compound in one experiment: CN1CCN(c2nc(C3=C(c4c[nH]c5ccccc45)C(=O)NC3=O)c3ccccc3n2)CC1 [sotrastaurin]
As to the kind of experiment: log2 fold change, soluble protein after heating vs DMSO (PISA); higher = thermal stabilisation; K562 cells, 10 uM, 30 min; active = over 0.2 and 3.5 SD of the protein, either way, in both replicates (recomputed). The procedure, abridged: (§1)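 Soluble protein was quantified by TMTpro 16plex LC-MS/MS after channel sums were equalised. It was obtained as the supernatant after 21,000xg for 90 min from pooled aliquots of K562 cells (2×10^6 cells/mL, 10 μM compound, 30 min) heated for 3 min across 48°C-58°C and extracted in PBS with 0.5% NP-40 at 4°C. Thermal stability values are relative to control samples and come from duplicates. They are given as log2 fold changes.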
Take DDX49 (UniProt Q9Y6V7): the log2 fold change is inactive: 0.085.

With DDAH2 (UniProt O95865), the log2 fold change was inactive: -0.029.

DHDDS isoform 2 (UniProt Q86SQ9): the log2 fold change was inactive: 0.037.

DGKZ (UniProt Q13574): the log2 fold change was inactive: -0.215.

In the case of DMTN (UniProt Q08495), the log2 fold change is inactive: 0.066.

For DMD (UniProt P11532), the log2 fold change is inactive: -0.016.

Regarding DGUOK (UniProt Q16854), the log2 fold change is inactive: 0.041.

For the target DDB2 (UniProt Q92466), the log2 fold change is inactive: 0.254.

For DNAJA2 (UniProt O60884), the log2 fold change was inactive: -0.01.

Consider DIMT1 (UniProt Q9UNQ2), for which the log2 fold change was inactive: 0.002.

In the case of DIPK2A (UniProt Q8NDZ4), the log2 fold change was inactive: 0.005.

For the target DHX8 (UniProt Q14562), the log2 fold change is inactive: 0.035.

For DFFA (UniProt O00273), the log2 fold change was inactive: -0.009.

For DDX23 (UniProt Q9BUQ8), the log2 fold change was inactive: 0.031.

For DMXL2 isoform 3 (UniProt Q8TDJ6), the log2 fold change is inactive: 0.133.

On to DERL1 (UniProt Q9BUN8), for which the log2 fold change was inactive: 0.046.

Compound in the next experiment: CN1CC[C@H](c2c(O)cc(O)c3c(=O)cc(-c4ccccc4Cl)oc23)[C@H](O)C1 [alvocidib]
The experiment is described as above. The gist of the method:
as §1
Regarding DGCR8 (UniProt Q8WYQ5), the log2 fold change was inactive: 0.169.

DENND6A (UniProt Q8IWF6): the log2 fold change is inactive: -0.017.

In the case of DHX57 (UniProt Q6P158), the log2 fold change was inactive: 0.155.

For DHRS11 (UniProt Q6UWP2), the log2 fold change was inactive: -0.089.

In the case of DENR (UniProt O43583), the log2 fold change is inactive: 0.033.

On to DHX15 (UniProt O43143), for which the log2 fold change is inactive: -0.006.

On to DEK (UniProt P35659), for which the log2 fold change was inactive: -0.127.

In the case of DENND4C isoform 7 (UniProt Q5VZ89), the log2 fold change was inactive: -0.073.

For the target DDX21 (UniProt Q9NR30), the log2 fold change was inactive: 0.204.

Take DLG3 (UniProt Q92796): the log2 fold change was inactive: -0.115.

Take DENND4B (UniProt O75064): the log2 fold change was inactive: -0.042.

For the target DDHD2 (UniProt O94830), the log2 fold change is inactive: -0.095.

As to DIDO1 (UniProt Q9BTC0), the log2 fold change was inactive: -0.057.

In the case of DIP2B (UniProt Q9P265), the log2 fold change was inactive: -0.015.

On to DIS3L (UniProt Q8TF46), for which the log2 fold change is inactive: -0.122.

Take DDT (UniProt P30046): the log2 fold change is inactive: -0.019.

For DDI2 isoform 3 (UniProt Q5TDH0), the log2 fold change was inactive: -0.072.

In the case of DDX42 (UniProt Q86XP3), the log2 fold change was inactive: -0.127.

For the target DICER1 (UniProt Q9UPY3), the log2 fold change was inactive: 0.161.

As to DDX41 (UniProt Q9UJV9), the log2 fold change was inactive: 0.012.

For DDX20 (UniProt Q9UHI6), the log2 fold change was inactive: 0.153.

Regarding DNAH9 (UniProt Q9NYC9), the log2 fold change is inactive: 0.011.

For the target DDX19B (UniProt Q9UMR2), the log2 fold change is inactive: -0.059.

Regarding DDX49 (UniProt Q9Y6V7), the log2 fold change is inactive: 0.065.

Turning to DDAH2 (UniProt O95865), the log2 fold change is inactive: 0.019.

For DHDDS isoform 2 (UniProt Q86SQ9), the log2 fold change is inactive: 0.018.

As to DGKZ (UniProt Q13574), the log2 fold change was inactive: -0.039.

Turning to DMTN (UniProt Q08495), the log2 fold change was inactive: -0.055.

On to DMD (UniProt P11532), for which the log2 fold change is inactive: -0.017.

On to DGUOK (UniProt Q16854), for which the log2 fold change was inactive: 0.026.

Take DDB2 (UniProt Q92466): the log2 fold change is inactive: -0.065.

DNAJA2 (UniProt O60884): the log2 fold change is inactive: -0.006.

For the target DIMT1 (UniProt Q9UNQ2), the log2 fold change was inactive: 0.261.

Turning to DIPK2A (UniProt Q8NDZ4), the log2 fold change was inactive: -0.188.

On to DHX8 (UniProt Q14562), for which the log2 fold change was inactive: 0.117.

For the target DFFA (UniProt O00273), the log2 fold change was inactive: -0.041.

As to DDX23 (UniProt Q9BUQ8), the log2 fold change is inactive: 0.192.

On to DMXL2 isoform 3 (UniProt Q8TDJ6), for which the log2 fold change is inactive: 0.139.

As for DERL1 (UniProt Q9BUN8), the log2 fold change was inactive: 0.099.
